The text below walks through data of the supplement of paper PMC9226226.

The test has as its system Werner syndrome hMSCs (WRN-/-). Briefly: relative cell density (fold change vs vehicle control); higher = more proliferation (geroprotective). The settings on record: concentration (umol/L): 1, 6 days.

Structures are written as SMILES. Values joined by “and” are separate entries in the source; they are usually repeats but may differ in a detail not shown here. Equal entries are not always repeated. The list shows a part of the results. Several reference drugs read as weak here; read low effects with care.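 Human mesenchymal stem cells lacking the Werner syndrome gene, which age prematurely, were used. Automated live-cell imaging tracked growth across three biological repeats; the twenty drugs raising growth most relative to vehicle advanced, without a stated fixed cutoff.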

`CCOc1cc2ncc(C#N)c(Nc3ccc(F)c(Cl)c3)c2cc1NC(=O)/C=C/CN(C)C` returned a relative cell density (vehicle: DMSO) of 0.501.
The molecule `Cc1cc(/C=C/C#N)cc(C)c1Nc1ccnc(Nc2ccc(C#N)cc2)n1` registered a relative cell density (vehicle: DMSO) of 1.19.
`Oc1ccc(/C=C/c2cc(O)cc(O)c2)cc1` returned a relative cell density (vehicle: DMSO) of 1.12.
As for `CCOC(=O)C1=C(COCCN)NC(C)=C(C(=O)OC)C1c1ccccc1Cl` (centres undefined), the relative cell density (vehicle: DMSO) was 1.1 and 1.06.
On to `CN1CC(O)c2cc(N=NC(N)=O)c(O)cc21` (centres undefined), for which the relative cell density (vehicle: DMSO) came out at 1.03.
Take `COc1ccc(/C=C/C(=O)Nc2ccccc2C(=O)O)cc1OC`: the relative cell density (vehicle: DMSO) was 0.977.
In the case of `CCN(CC)CCNC(=O)c1c(C)[nH]c(/C=C2\C(=O)Nc3ccc(F)cc32)c1C`, the relative cell density (vehicle: DMSO) is 1 and 1.35.
`CC(=O)OCC(=O)[C@@]12OC(C)(C)O[C@@H]1C[C@H]1[C@@H]3C[C@H](F)C4=CC(=O)C=C[C@]4(C)[C@@]3(F)[C@@H](O)C[C@@]12C` yielded a relative cell density (vehicle: DMSO) of 1.17.
The molecule `c1ccc2c(CC3=NCCN3)cccc2c1` showed a relative cell density (vehicle: DMSO) of 1.21.
Turning to `CC(=O)c1cc2c(o1)C(=O)c1ccccc1C2=O`, the relative cell density (vehicle: DMSO) is 0.343.
Take `CCN(CC)CC(=O)Nc1c(C)cccc1C`: where the note is “vehicle: DMSO”, the relative cell density is 1.29 and 1.05.
Molecule `O=C1NS(=O)(=O)c2ccccc21` showed a relative cell density (vehicle: DMSO) of 1.24.
On the same count and under the same terms, the result for `CC(C)COc1ccc(CNC(=O)N(Cc2ccc(F)cc2)C2CCN(C)CC2)cc1` reads 1.14.
Consider `O=c1oc2c(O)c(O)cc3c(=O)oc4c(O)c(O)cc1c4c23`, for which the relative cell density (vehicle: Water) was determined as 0.975.
`CNC(=O)c1cc(Oc2ccc(NC(=O)Nc3ccc(Cl)c(C(F)(F)F)c3)cc2)ccn1`: the relative cell density (vehicle: DMSO) is 1.21 and 1.09.
Under “vehicle: DMSO”, `COc1cccc2c1C(=O)c1c(O)c3c(c(O)c1C2=O)C[C@@](O)(C(C)=O)C[C@@H]3O[C@H]1C[C@H](N)[C@H](O)[C@H](C)O1` gave a relative cell density of 0.109.
Same read-out and setting: the result for `Cc1cn([C@H]2C=C[C@@H](CO)O2)c(=O)[nH]c1=O` reads 1.02; that for `O=C([O-])C(O)C(O)C(O)C(O)C(=O)[O-].O=C([O-])C(O)C(O)C(O)C(O)C(=O)[O-].O=C([O-])C(O)C(O)C(O)C(O)C(=O)[O-].[Fe+3].[Fe+3]` (centres undefined), 1.12; that for `CN1C(CCl)Nc2cc(Cl)c(S(N)(=O)=O)cc2S1(=O)=O` (centres undefined), 1.05.
Molecule `CO/N=C(\C(=O)N[C@@H]1C(=O)N2C(C(=O)[O-])=C(C[n+]3cccc4c3CCC4)CS[C@H]12)c1csc(N)n1` gave a relative cell density (vehicle: DMSO) of 1.08.
On the same count and under the same terms, to `CC(O)Cn1cnc2c1c(=O)n(C)c(=O)n2C` (centres undefined) belongs 1.25; to `CS(=O)(=O)OCCCCOS(C)(=O)=O`, 1.05; to `CC[C@@H]1C(=O)OC[C@@H]1Cc1cncn1C`, 1.16.
Take `O=c1c(-n2ccnn2)c[nH]n1-c1cc(N2CCOCC2)ncn1`: for the setting “vehicle: Water”, the relative cell density came out at 1.2.
As for `COc1cc2nccc(Oc3ccc(NC(=O)NC4CC4)c(Cl)c3)c2cc1C(N)=O`, the relative cell density (vehicle: DMSO) is 1.04.
Where the note is “vehicle: DMSO”, `C[C@@H](O[C@H]1OCCN(Cc2nn(P(=O)(O)O)c(=O)[nH]2)[C@H]1c1ccc(F)cc1)c1cc(C(F)(F)F)cc(C(F)(F)F)c1` yielded a relative cell density of 1.07.
With `CCC(C)(Oc1ccc(C2(c3ccc(OC(C)(CC)C(=O)O)cc3)CCCCC2)cc1)C(=O)O` (centres undefined), the relative cell density (vehicle: DMSO) worked out at 0.785.
Still for that read-out and setting: the result for `O=C(CCCN1CCN(c2ccccn2)CC1)c1ccc(F)cc1` reads 1.13.
On the same count and under the same terms, the result for `C[C@H](CCC(=O)O)[C@H]1CC[C@H]2[C@@H]3[C@@H](O)C[C@@H]4C[C@H](O)CC[C@]4(C)[C@H]3CC[C@]12C` reads 1.05.
As to `COC(=O)C1=C(C#N)NC(C)=C(C(=O)OC(C)C)C1c1cccc([N+](=O)[O-])c1` (centres undefined), the relative cell density (vehicle: DMSO) is 1.08.
On the same count and under the same terms, to `COCCCN1CCC(NC(=O)c2cc(Cl)c(N)c3c2OCC3)CC1` belongs 1 and 1.41.
The molecule `N[C@@H](Cc1cc(I)c(Oc2ccc(O)c(I)c2)c(I)c1)C(=O)O` had a relative cell density (vehicle: DMSO) of 1.01.
On to `Cc1ccc(=O)n(-c2ccccc2)c1`, for which the relative cell density (vehicle: DMSO) worked out at 1.08.
In the case of `Cc1c(-c2cnccn2)ssc1=S`, the relative cell density (vehicle: DMSO) was determined as 0.993.
Where the note is “vehicle: DMSO”, `CC(C)(CO)C(O)C(=O)NCCC(=O)O` (centres undefined) displayed a relative cell density of 1.44.
The same measure, in the same setting: to `CC(C)OC(=O)OCOP(=O)(CO[C@H](C)Cn1cnc2c(N)ncnc21)OCOC(=O)OC(C)C` belongs 1; to `C[N+](C)(C)CC(=O)O`, 0.975; to `OCCN(CCO)c1nc(N2CCCCC2)c2nc(N(CCO)CCO)nc(N3CCCCC3)c2n1`, 1.07.
On the same count and under the same terms, to `CN1CCN(C(c2ccccc2)c2ccccc2)CC1` belongs 0.743.
The molecule `COC(=O)[C@@H]1CC2=CC(=O)CC[C@]2(C)[C@@]23O[C@@H]2C[C@@]2(C)[C@@H](CC[C@@]24CCC(=O)O4)[C@H]13` came in with a relative cell density (vehicle: Water) of 0.667.
Where the note is “vehicle: DMSO”, `Cc1ccc(F)c(NC(=O)Nc2ccc(-c3cccc4[nH]nc(N)c34)cc2)c1` showed a relative cell density of 1.43.
On to `C[C@]12CC[C@@H]3c4ccc(OC(=O)c5ccccc5)cc4CC[C@H]3[C@@H]1CC[C@@H]2O`, for which the relative cell density (vehicle: DMSO) was 1.09.
Still for that read-out and setting: the result for `O=c1oc2cc(O)ccc2s1` reads 1.16; that for `O=C(O)c1ccccc1O`, 1.26; that for `CCOC(=O)[C@H](CCc1ccccc1)N[C@@H](C)C(=O)N1C(=O)N(C)C[C@H]1C(=O)O`, 1.34.
For `C[C@@H]1C[C@H]2[C@@H]3CCC4=CC(=O)C=C[C@]4(C)[C@@]3(Cl)[C@@H](O)C[C@]2(C)[C@@]1(OC(=O)c1ccco1)C(=O)CCl`, the relative cell density (vehicle: DMSO) turned out to be 1.15.
`C[C@]12CCC3=C4CCC(=O)C=C4CC[C@H]3[C@@H]1CC[C@@]2(O)CC#N` returned a relative cell density (vehicle: DMSO) of 0.83.
Under “vehicle: DMSO”, `O=C(O)c1cc(/N=N/c2ccc(S(=O)(=O)Nc3ccccn3)cc2)ccc1O` yielded a relative cell density of 0.965.
`C=C1c2cccc(O)c2C(O)=C2C(=O)[C@]3(O)C(O)=C(C(N)=O)C(=O)[C@@H](N(C)C)[C@@H]3[C@@H](O)[C@H]12` gave a relative cell density (vehicle: Water) of 1.13.
In turn, `CC(C)N(CCCCOCC(=O)NS(C)(=O)=O)c1cnc(-c2ccccc2)c(-c2ccccc2)n1` came in with a relative cell density (vehicle: DMSO) of 0.818.
Molecule `C#C[C@]1(O)CC[C@H]2[C@@H]3CCC4=CC(=O)CC[C@@H]4[C@H]3C(=C)C[C@@]21CC` showed a relative cell density (vehicle: DMSO) of 1.34.
The same measure, in the same setting: the result for `NC(=O)c1ccc(I)c([N+](=O)[O-])c1` reads 1.13.
For the molecule `N/N=c1\[nH][nH]/c(=N\N)c2ccccc12`, the relative cell density (vehicle: DMSO) was found to be 1.26.
As to `CN/C(=N\CCSCc1nc[nH]c1C)NC#N`, the relative cell density (vehicle: DMSO) was 1.09.
Consider `C/C(=C\C(=O)OCCCCCCCCC(=O)O)C[C@@H]1OC[C@H](C[C@@H]2O[C@H]2[C@@H](C)[C@H](C)O)[C@@H](O)[C@H]1O`, for which, under “vehicle: DMSO”, the relative cell density is 0.401 and 1.18.
For `CS(=O)(=O)c1cccc(C[C@H](NC(=O)c2c(Cl)cc3c(c2Cl)CCN(C(=O)c2ccc4ccoc4c2)C3)C(=O)O)c1`, under “vehicle: DMSO”, the relative cell density amounted to 1.04.
On the same count and under the same terms, to `Oc1cccc(O)c1` belongs 1.27; to `C[C@@H](O[C@H]1OCCN(Cc2n[nH]c(=O)[nH]2)[C@H]1c1ccc(F)cc1)c1cc(C(F)(F)F)cc(C(F)(F)F)c1`, 1.25; to `CCCCN(CCCC)CC(O)c1cc(Cl)cc2c1-c1ccc(Cl)cc1/C2=C/c1ccc(Cl)cc1` (centres undefined), 0.775.
